Measured values from doi:10.1101/2023.01.27.525886 (bioRxiv, 2023).
Results are given in words; binding and its absence hold for the method and conditions named. Binding seen in cells or lysates may run through a third protein. A result given as binding can be weak or reduced; the word gives no strength.

T1: Vtc3-TAPm (S. cerevisiae, UniProt Q02725 1-835)
T1 sequence: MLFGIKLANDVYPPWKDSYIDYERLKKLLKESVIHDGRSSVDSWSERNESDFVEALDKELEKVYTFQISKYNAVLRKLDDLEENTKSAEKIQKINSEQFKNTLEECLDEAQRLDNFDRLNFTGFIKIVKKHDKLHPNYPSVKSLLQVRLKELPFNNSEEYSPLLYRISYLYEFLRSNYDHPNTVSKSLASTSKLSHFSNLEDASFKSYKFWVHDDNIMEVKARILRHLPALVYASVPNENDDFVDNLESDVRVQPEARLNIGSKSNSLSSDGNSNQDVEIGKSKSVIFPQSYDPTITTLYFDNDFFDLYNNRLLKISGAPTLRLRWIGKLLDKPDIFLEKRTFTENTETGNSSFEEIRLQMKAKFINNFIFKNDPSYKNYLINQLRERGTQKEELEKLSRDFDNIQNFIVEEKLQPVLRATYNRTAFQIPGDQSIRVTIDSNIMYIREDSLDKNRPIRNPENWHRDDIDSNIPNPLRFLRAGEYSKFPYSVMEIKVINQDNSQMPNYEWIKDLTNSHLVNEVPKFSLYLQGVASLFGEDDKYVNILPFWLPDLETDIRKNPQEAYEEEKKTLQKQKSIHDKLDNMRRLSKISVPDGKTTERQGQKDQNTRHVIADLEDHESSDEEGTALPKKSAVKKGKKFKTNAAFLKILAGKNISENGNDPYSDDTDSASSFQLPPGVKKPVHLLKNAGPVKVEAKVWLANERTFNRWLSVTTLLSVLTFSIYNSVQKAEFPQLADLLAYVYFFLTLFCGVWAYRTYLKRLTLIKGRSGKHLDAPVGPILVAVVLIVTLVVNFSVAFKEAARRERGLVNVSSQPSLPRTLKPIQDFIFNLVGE


How the values were obtained:
[1] = target: T1, Vtc3-TAPm; assay: affinity co-purification of the endogenous complex
[2] = target: Vtc3(ΔSPX) (S. cerevisiae); assay: affinity co-purification of the endogenous complex

binding [1]	binding [2]	Molecule
binds		Vtc4(ΔSPX) (S. cerevisiae) (domain or fragment)
	binds	Vtc1 (natural protein) MSSAPLLQRTPGKKIALPTRVEPKVFFANERTFLSWLNFTVMLGGLGVGLLNFGDKIGRVSAGLFTFVAMGTMIYALVTYHWRAAAIRRRGSGPYDDRLGPTLLCFFLLVAVIINFILRLKYNDANTKL
